What all share (experiment): proximity labelling; BioID2 fused to the C terminus of the bait in hESC-derived NGN2 neurons; K18[P301L] fibrils, α-synuclein PFFs (50 μg/dish) or PBS; 50 μM biotin for 24 h, added with the fibrils or 3 weeks later; lysis in 8 M urea, streptavidin magnetic beads, on-bead trypsin, TMT10plex LC-MS; interactor: ≥1.5-fold more abundant than in both BioID2-only controls
Assay [1] has as its target 0N4R tau[WT]-BioID2 (UniProt P10636).
The target of another assay is 0N4R tau[P301L]-BioID2.
In assay [2] the target is 0N4R tau[WT]-BioID2 (UniProt P10636). The source holds these as a separate data set.

Sequences of proteins named here, by UniProt entry; tags and fusion partners are left off. A change or cut given only in a name is not applied to a line headed by its entry. A line that says so, or that is headed by a name, gives the form on record, which may keep a tag or linker. Residues count along the entry.
0N4R tau[WT]-BioID2 (P10636, form named): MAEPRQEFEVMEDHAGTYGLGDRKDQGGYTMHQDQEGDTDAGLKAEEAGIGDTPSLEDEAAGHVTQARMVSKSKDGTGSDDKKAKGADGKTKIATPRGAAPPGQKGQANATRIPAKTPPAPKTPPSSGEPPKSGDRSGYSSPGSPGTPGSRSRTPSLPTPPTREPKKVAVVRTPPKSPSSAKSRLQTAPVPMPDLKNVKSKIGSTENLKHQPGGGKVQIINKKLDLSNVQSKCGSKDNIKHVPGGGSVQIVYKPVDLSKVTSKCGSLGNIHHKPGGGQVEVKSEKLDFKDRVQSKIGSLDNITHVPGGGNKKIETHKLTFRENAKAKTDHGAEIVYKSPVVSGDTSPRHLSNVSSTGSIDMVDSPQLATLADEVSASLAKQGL
UniProt O00217, residues 35-210: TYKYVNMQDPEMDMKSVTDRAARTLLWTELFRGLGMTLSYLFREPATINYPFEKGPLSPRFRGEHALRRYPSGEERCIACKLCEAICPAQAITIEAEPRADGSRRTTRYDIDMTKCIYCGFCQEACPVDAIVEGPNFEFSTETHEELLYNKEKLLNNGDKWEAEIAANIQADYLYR
UniProt P11137: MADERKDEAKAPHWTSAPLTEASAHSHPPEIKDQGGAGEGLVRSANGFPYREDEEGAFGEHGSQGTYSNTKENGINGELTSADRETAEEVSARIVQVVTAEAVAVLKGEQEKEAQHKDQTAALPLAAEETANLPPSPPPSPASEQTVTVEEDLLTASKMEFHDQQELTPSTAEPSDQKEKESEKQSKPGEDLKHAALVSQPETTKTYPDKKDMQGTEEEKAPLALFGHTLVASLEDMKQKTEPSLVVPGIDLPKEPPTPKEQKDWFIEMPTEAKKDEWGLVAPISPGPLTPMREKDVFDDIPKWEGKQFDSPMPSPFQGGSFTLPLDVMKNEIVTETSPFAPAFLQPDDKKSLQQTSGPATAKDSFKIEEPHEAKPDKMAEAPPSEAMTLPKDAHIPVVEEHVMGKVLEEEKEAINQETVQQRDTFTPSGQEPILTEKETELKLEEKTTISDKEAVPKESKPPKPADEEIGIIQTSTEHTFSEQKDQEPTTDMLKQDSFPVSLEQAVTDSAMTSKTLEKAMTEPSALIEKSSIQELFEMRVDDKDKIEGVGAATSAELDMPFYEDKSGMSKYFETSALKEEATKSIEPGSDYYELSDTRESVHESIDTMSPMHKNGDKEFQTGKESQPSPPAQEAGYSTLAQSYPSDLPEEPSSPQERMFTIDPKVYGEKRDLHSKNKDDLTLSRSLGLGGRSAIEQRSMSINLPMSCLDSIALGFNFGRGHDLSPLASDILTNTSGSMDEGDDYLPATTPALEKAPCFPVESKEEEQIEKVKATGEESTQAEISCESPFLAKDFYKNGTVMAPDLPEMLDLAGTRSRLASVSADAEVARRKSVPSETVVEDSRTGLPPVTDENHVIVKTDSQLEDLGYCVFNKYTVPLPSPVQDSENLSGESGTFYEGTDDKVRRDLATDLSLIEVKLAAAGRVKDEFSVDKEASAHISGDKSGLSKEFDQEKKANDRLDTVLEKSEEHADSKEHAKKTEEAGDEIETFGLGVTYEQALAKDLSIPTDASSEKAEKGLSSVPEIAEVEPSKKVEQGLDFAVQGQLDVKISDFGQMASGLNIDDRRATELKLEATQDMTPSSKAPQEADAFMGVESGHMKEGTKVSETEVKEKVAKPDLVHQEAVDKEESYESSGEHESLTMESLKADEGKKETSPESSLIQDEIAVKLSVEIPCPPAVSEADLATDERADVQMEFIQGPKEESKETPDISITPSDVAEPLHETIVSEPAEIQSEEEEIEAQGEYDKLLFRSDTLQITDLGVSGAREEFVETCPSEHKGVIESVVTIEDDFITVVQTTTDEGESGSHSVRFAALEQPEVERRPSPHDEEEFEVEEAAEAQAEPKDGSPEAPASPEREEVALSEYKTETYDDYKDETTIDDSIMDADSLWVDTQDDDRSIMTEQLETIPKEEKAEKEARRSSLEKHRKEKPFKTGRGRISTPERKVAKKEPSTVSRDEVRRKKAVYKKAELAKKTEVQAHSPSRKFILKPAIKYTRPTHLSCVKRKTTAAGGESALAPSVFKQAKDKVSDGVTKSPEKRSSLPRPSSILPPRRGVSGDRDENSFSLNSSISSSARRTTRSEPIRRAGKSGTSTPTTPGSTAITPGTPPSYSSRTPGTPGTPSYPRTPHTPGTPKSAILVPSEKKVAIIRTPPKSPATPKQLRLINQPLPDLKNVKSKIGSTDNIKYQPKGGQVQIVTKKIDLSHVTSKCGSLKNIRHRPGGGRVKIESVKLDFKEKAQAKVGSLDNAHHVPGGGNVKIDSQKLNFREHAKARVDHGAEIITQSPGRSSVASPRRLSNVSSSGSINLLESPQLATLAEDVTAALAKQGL
UniProt Q99497: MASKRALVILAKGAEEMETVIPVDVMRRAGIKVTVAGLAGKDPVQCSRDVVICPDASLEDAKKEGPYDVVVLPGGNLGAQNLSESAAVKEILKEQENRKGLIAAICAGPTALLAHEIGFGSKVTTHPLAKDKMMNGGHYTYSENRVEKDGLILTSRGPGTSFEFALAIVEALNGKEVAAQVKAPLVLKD

Where two headings read alike, the source gives them in different places. Results are given in words; binding and its absence hold for the method and conditions named. Binding seen in cells or lysates may run through a third protein. These calls come from enrichment with a bait or labelling near it, and not all partners need be listed. For some assays here: A no says only that the protein was not detected with the bait.

Consider “NADH:ubiquinone oxidoreductase core subunit S8 (from UniProt O00217 35-210)”, for which, in the assay with 0N4R tau[WT]-BioID2 [1], the binding result is “binds”.
On to “microtubule-associated protein 2 (from UniProt P11137 1-1827)”, for which the binding entry with 0N4R tau[WT]-BioID2 [1] is “binds”.
Same read-out and setting: the same measure for “DJ-1 (Parkinsonism-associated deglycase) (from UniProt Q99497 1-189)”: “no binding”.

B1: 14-3-3θ (protein, UniProt P27348 1-245)
chain: MEKTELIQKAKLAEQAERYDDMATCMKAVTEQGAELSNEERNLLSVAYKNVVGGRRSAWRVISSIEQKTDTSDKKLQLIKDYREKVESELRSICTTVLELLDKYLIANATNPESKVFYLKMKGDYFRYLAEVACGDDRKQTIDNSQGAYQEAFDISKKEMQPTHPIRLGLALNFSVFYYEILNNPELACTLAKTAFDEAIAELDTLNEDSYKDSTLIMQLLRDNLTLWTSDSAGEECDAAEGAEN
Consider B1, for which the binding entry with 0N4R tau[P301L]-BioID2 is “binds”; in the assay with 0N4R tau[WT]-BioID2 [2], “no binding”.

Values taken from paper PMC9978635.
